The values that follow come from paper PMC12648864 (Biology of Sex Differences, 2025).

Like-named read-outs stand apart in the source and are kept apart here.

This data set concerns plasma metabolites. It is filed as in vivo, rat. On the procedure:
Male and female SD rats were divided into experimental and control groups. Each group contained 10 male and 10 female rats. […] Blood was collected from orbital vein into sodium heparin-coated centrifugal tubes pre-chilled at 4 ℃, at 30 min, 2 h, and 12 h post-administration respectively. Plasma was separated by gentle inversion, immediately quenched in liquid nitrogen, and centrifuged at 1500 g for 10 min at 4 ℃. The prepared plasma was stored at − 80 ℃ until LC-MS/MS analysis.
The stored plasma samples were thawed at 4 °C, and 100 µL of each sample was transferred to a centrifuge tube. Proteins were precipitated using 1 mL of methanol/acetonitrile/water solution (2:2:1, v: v:v) at 4 °C. After vortex mixing, the sample mixture was sonicated for 30 min (ice was used to maintain the low-temperature conditions). The sonicated mixture was allowed to stand for 10 min at […], then centrifuged at 14,000 g for 20 min at 4 °C. The resulting supernatant was collected and dried under vacuum. For instrumental analysis, the dried supernatant was reconstituted in 100 µL of aqueous acetonitrile solution, vortexed, then centrifuged at 14,000 g for 15 min at 4 °C. To ensure instrument stability and data reliability, quality control samples were prepared and analyzed using random sampling.
Chromatographic conditions: separation was performed in a Waters Acquity UPLC BEH Amide column (1.7 μm, 2.1 × 100 mm). The column temperature was 25 ℃ and flow rate was 0.5 mL/min. The injection volume was 2 µL, with the mobile phases consisting of A: water + 25 mM ammonium acetate + 25 mM ammonia, and B: acetonitrile. The gradient elution program was as follows: 0–0.5 min, 95% B; 0.5–7 min, 95%−65% B; 7–8 min, 65%−40% B; 8–9 min, 40% B; 9–9.1 min, 40%−95%B; 9.1–12 min, 95%B.
MS conditions: Detection was carried out using electrospray ionization in both positive and negative ion modes. The following parameters were used: spray voltage, ± 5500 V; ionization temperature, 600 ℃; nebulization air pressure, 60 psi; auxiliary air pressure, 60 psi; air curtain air pressure, 30 psi; time-of-flight MS scanning range (m/z), 60–1000 Da; product ion scanning range, 25–1000 Da. The secondary mass spectra were acquired using information-dependent acquisition in high-resolution mode. The cone bore voltage was ± 60 V (positive and negative modes) and collision energy was 35 ± 15 eV.
Orthogonal partial least squares-discriminant analysis (OPLS-DA) were computed for control female and male rats. […] Differential metabolites were identified using stringent criteria: variable importance in projection (VIP) scores > 1 and statistically significant from t-test.
OPLS-DA scores were calculated for the control group and experimental male rats. […] Differential metabolites were identified using stringent selection criteria: VIP scores > 1.0 and P < 0.05, as derived from the OPLS-DA model.
We performed pairwise comparisons of metabolites between male and female rats in the experimental and control groups. […] We performed KEGG enrichment analysis on metabolites that differed between male and female rats in the experimental group (Fig. 6G-I).

Where [1] appears, read: test male vs test female rats (TM8 vs TF8), 12 hour after strychnine.
The mark [2] stands for this setting: test male vs test female rats (TM8 vs TF8), 12 hour, after excluding blank-group and before/after-administration sex differences.
Where [3] appears, read: test group male (TM5) vs female (TF5) rats at 2 hours.
[4] abbreviates: test group male (TM3) vs female (TF3) rats at 30 minutes.
[5] abbreviates: test male vs test female rats (TM5 vs TF5), 2 hour, after excluding blank-group and before/after-administration sex differences.

For the molecule `NCCc1ccc(O)cc1` [Tyramine], the Fold change by setting is: under setting [1], 0.6121; under setting [2], 0.6121.
As to `CCCCCCCCCCCCCCCCCC(=O)OC[C@@H](O)COP(=O)([O-])OCC[N+](C)(C)C` [1-Stearoyl-sn-glycerol 3-phosphocholine], the Fold change under setting [3] is recorded as 0.3627.
Regarding `CC(C)CCC[C@@H](C)[C@H]1CC[C@H]2[C@@H]3C(=O)C=C4C[C@@H](O)CC[C@]4(C)[C@H]3CC[C@]12C` [7-Oxocholesterol], the Fold change under setting [4] was found to be 1.996.
Same read-out and setting: the figure for `C=C1CC[C@H](O)C/C1=C/C=C1\CCC[C@]2(C)[C@@H]([C@H](C)CCCC(C)C)CC[C@@H]12` [Cholecalciferol (Vitamin D3)] is 0.4233.
Take `COc1ccc(-c2cc(=O)c3c(OC)c(OC)c(OC)c(OC)c3o2)cc1` [Tangeritin]: the Fold change under setting [3] came to 0.1259.
Consider `CN1CC(=O)NC1=N` [Creatinine], for which the Fold change under setting [3] is listed as 0.6023.
As for `Cc1c[nH]c(=O)[nH]c1=O` [Thymine], the Fold change under setting [3] amounted to 0.4499, the Fold change under setting [5] came out at 0.4499, the Fold change under setting [1] is 0.3532 and the Fold change under setting [2] is given as 0.3532.
Take `CCCCC/C=C\C/C=C\CCCCCCCC(=O)OCC(O)CO` (racemic) [MG(18:2(9Z,12Z)/0:0/0:0)[rac]]: the Fold change reads like this: (rat, in vivo) 0.05732; under setting [4], 3.095; under setting [3], 0.449; under setting [5], 0.449; under setting [2], 0.05732.
In the case of `Nc1ccn([C@H]2C[C@H](O)[C@@H](CO)O2)c(=O)n1` [Deoxycytidine], the Fold change runs as follows: under setting [3], 0.7601; under setting [1], 0.6664; under setting [2], 0.6664.
Take `CCCCCCCCCCCCCCCC(=O)OC[C@H](COP(=O)([O-])OCC[N+](C)(C)C)OC(=O)CCCCCCCCCCCCCCC` [PC(16:0/16:0)]: the Fold change reads like this: under setting [4], 2.09; under setting [3], 1.754; under setting [5], 1.754.
With `CCCCCCCCCCCCCC(=O)OC[C@@H](O)COP(=O)([O-])OCC[N+](C)(C)C` [1-Myristoyl-sn-glycero-3-phosphocholine], the Fold change was found to be 1.498 under setting [4], 1.895 under setting [3] and 2.284 under setting [1].
For `CCCCCCCC/C=C\CCCCCCCCOC[C@H](COP(=O)([O-])OCC[N+](C)(C)C)OC(C)=O` [1-O-(cis-9-Octadecenyl)-2-O-acetyl-sn-glycero-3-phosphocholine], the Fold change came out at 2.309 under setting [4] and 0.463 under setting [1].
`C[C@]12CCC(=O)C=C1CC[C@@H]1[C@@H]2CC[C@]2(C)C(=O)CC[C@@H]12` [Androstendione]: the Fold change is, setting by setting: under setting [4], 0.5554; under setting [3], 0.4044; under setting [5], 0.4044.
For `CCCCCCCC/C=C\CCCCCCCC(=O)O[C@H](COC(=O)CCCCCCCCCCCCCCCCC)COP(=O)([O-])OCC[N+](C)(C)C`, the Fold change is, setting by setting: (rat, in vivo) 0.3801; under setting [4], 0.4159; under setting [3], 0.3884; under setting [5], 0.3884; under setting [2], 0.3801.
Consider `COc1ccc(-c2cc(=O)c3c(OC)c(OC)c(OC)c(OC)c3o2)cc1OC` [Nobiletin], for which, under setting [3], the Fold change was found to be 0.09874.
Regarding `CCCCC/C=C\C/C=C\CCCCCCCC(=O)O` [Linoleic acid], the Fold change is, setting by setting: under setting [1], 0.11; under setting [2], 0.11.
For `Cc1c[nH]c(=O)nc1N` [5-Methylcytosine], the Fold change reads like this: under setting [4], 0.4844; under setting [3], 0.7224; under setting [5], 0.7224.
Regarding `CCCCCCCCCCCCCCCC(=O)OC[C@@H](O)COP(=O)([O-])OCC[N+](C)(C)C` [1-Palmitoyl-sn-glycero-3-phosphocholine], the Fold change stood at 1.242 under setting [4], 1.271 under setting [3] and 1.271 under setting [5].
Take `O=C(O)[C@H]1CCCN1` [D-Proline]: the Fold change under setting [1] amounted to 0.5579.
As for `CC(C)CCC[C@@H](C)[C@H]1CC[C@H]2C3=CC[C@H]4C[C@@H](O)CC[C@]4(C)[C@H]3CC[C@]12C` [Lathosterol], the Fold change amounted to 0.4073 under setting [4] and 3.957 under setting [1].
On to `CCCCCCCCCCCCCCCC(=O)OCC(O)CO` (stereo not shown) [1-Palmitoylglycerol], for which the Fold change by setting is: under setting [4], 2.851; under setting [3], 0.568; under setting [1], 0.2262.
As for `CCCCCCCCCCCCCCCCSC[C@H](COP(=O)(O)OCC[N+](C)(C)C)NC(=O)CCCCCCCCCCCCCCC` [Thioetheramide-PC], the Fold change under setting [4] was 1.621, the Fold change under setting [3] is 1.595 and the Fold change under setting [5] is reported as 1.595.
For `NC1CCCCC1` [Cyclohexylamine], the Fold change under setting [4] worked out at 1.868.
For `C[n+]1cccc(C(=O)[O-])c1` [Trigonelline], the Fold change under setting [4] is reported as 1.929 and the Fold change under setting [3] is listed as 1.556.
On to `O=C(O)[C@@H]1CCCCN1` [L-Pipecolic acid], for which the Fold change stood at 0.524 under setting [3] and 0.4481 under setting [1].
As to `CCCCCCCC/C=C\CCCCCCCC(=O)OC[C@H](COP(=O)([O-])OCC[N+](C)(C)C)OC(=O)CCCCCCC/C=C\CCCCCCCC`, the Fold change under setting [4] is recorded as 1.495.
For `CCCCCCCCCCCCC/C=C/[C@@H](O)[C@H](CO)NC(=O)CCCCCCCCCCCCCCC` [N-Palmitoylsphingosine], the Fold change under setting [1] is on record as 2.061.
With `C[N+](C)(C)CCCC(=O)O`, the Fold change runs as follows: under setting [4], 1.412; under setting [3], 1.61; under setting [5], 1.61.
With `Nc1cc[nH]c(=O)n1` [Cytosine], the Fold change under setting [1] came to 0.7061.
Regarding `CCCCCCCC/C=C\CCCCCCCC(=O)OC[C@@H](O)COP(=O)([O-])OCC[N+](C)(C)C` [1-Oleoyl-sn-glycero-3-phosphocholine], the Fold change is, setting by setting: under setting [4], 1.769; under setting [3], 1.341; under setting [5], 1.341.
